Measured values taken from the supplement of paper PMC10849652.
The other results are listed elsewhere or left out.

The chains behind the UniProt entries cited, without tags or fusion partners. Where a name states a change or a piece, a line headed by the entry shows the natural chain unless it says otherwise.
UniProt O43772: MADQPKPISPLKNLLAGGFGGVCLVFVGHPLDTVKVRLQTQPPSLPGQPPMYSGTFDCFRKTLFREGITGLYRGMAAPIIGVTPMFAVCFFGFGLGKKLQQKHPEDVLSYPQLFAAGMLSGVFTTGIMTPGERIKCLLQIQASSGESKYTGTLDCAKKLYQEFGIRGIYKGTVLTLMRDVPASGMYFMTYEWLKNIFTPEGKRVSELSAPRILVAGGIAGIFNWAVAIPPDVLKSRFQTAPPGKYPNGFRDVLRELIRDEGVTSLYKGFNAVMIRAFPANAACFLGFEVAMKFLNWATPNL
UniProt O15431: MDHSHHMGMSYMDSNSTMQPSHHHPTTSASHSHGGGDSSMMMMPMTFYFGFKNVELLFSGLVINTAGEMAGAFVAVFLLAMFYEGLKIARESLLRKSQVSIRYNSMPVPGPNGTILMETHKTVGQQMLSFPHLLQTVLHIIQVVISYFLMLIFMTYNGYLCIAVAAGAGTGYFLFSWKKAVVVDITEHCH
UniProt P11169: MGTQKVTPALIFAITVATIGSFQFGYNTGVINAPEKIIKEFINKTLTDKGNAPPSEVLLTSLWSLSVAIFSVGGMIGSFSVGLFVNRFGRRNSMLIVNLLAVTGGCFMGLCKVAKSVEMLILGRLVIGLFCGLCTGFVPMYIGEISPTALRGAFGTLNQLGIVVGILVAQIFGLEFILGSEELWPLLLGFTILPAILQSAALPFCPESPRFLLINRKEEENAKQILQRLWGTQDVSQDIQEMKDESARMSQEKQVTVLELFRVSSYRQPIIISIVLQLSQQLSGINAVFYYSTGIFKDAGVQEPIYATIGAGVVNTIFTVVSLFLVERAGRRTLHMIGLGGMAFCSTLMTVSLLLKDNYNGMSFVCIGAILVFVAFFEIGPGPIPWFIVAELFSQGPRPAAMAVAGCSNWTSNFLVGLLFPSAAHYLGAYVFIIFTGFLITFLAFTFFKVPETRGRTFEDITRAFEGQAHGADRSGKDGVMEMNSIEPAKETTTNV
UniProt Q9BWU0: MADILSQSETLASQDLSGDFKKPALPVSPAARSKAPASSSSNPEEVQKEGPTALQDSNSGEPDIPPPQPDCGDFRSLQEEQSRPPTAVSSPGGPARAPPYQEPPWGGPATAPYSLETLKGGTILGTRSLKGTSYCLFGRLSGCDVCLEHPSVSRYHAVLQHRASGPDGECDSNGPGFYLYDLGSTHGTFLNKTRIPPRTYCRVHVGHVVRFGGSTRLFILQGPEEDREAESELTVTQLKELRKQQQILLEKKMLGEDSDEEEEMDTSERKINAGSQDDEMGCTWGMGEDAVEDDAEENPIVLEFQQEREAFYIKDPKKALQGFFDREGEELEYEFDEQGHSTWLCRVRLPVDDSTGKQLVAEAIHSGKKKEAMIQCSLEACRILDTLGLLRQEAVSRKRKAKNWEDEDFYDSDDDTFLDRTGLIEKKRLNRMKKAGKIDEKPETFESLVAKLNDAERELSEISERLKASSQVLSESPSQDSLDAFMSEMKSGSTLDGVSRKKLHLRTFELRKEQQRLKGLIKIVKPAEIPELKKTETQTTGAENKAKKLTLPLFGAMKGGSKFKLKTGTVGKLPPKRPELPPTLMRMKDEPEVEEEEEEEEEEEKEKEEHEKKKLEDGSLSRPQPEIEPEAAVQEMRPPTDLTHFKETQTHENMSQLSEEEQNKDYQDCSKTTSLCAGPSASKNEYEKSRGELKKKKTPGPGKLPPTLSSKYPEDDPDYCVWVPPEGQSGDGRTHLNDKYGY
UniProt Q9NP59: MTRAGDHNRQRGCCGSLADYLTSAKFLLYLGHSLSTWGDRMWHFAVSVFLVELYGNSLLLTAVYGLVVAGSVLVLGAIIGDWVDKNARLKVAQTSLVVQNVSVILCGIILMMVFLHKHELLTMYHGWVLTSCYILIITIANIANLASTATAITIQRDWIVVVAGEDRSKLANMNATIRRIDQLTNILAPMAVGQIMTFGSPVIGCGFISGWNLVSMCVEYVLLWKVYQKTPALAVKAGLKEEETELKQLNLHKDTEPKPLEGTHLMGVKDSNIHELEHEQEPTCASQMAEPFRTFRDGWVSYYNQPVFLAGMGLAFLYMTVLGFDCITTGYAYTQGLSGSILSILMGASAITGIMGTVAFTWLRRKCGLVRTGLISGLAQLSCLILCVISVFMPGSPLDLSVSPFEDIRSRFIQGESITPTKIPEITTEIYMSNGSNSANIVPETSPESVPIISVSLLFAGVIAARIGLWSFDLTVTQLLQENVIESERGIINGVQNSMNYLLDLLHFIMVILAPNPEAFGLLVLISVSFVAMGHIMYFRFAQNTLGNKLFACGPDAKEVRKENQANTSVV
UniProt Q9H2H9: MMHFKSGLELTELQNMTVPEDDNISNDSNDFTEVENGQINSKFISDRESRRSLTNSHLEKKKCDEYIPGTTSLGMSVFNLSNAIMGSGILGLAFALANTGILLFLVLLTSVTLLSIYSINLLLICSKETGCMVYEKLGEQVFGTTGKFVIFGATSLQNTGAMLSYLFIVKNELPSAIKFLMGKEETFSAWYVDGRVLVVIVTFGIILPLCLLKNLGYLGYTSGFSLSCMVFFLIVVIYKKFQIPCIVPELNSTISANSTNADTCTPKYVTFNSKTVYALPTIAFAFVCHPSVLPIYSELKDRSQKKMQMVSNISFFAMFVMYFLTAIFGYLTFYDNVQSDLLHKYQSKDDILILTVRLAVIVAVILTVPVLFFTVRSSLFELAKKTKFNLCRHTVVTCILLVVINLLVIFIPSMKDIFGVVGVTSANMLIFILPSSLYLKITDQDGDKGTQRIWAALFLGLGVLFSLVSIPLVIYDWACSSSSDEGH
UniProt P16260: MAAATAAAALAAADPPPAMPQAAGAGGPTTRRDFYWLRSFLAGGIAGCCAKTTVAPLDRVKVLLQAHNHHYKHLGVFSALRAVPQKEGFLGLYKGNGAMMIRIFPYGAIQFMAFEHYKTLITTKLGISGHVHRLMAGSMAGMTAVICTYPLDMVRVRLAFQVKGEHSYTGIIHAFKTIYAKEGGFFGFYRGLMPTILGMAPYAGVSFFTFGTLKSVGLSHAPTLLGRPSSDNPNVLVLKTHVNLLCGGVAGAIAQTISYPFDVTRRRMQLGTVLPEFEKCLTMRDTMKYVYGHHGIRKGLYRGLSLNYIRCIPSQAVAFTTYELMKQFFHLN
UniProt L0R6Q1: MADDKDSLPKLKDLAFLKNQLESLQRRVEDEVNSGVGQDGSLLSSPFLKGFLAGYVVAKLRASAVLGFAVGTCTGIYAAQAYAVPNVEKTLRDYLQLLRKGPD
UniProt P12235: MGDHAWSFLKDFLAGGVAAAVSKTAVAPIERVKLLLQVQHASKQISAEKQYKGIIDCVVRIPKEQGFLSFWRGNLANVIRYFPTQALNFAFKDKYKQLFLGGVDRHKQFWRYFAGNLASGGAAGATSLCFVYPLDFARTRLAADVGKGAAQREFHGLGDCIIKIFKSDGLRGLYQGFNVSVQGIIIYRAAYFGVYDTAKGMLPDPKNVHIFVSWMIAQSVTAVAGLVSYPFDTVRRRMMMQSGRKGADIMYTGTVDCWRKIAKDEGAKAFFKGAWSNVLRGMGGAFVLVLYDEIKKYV
UniProt O75387: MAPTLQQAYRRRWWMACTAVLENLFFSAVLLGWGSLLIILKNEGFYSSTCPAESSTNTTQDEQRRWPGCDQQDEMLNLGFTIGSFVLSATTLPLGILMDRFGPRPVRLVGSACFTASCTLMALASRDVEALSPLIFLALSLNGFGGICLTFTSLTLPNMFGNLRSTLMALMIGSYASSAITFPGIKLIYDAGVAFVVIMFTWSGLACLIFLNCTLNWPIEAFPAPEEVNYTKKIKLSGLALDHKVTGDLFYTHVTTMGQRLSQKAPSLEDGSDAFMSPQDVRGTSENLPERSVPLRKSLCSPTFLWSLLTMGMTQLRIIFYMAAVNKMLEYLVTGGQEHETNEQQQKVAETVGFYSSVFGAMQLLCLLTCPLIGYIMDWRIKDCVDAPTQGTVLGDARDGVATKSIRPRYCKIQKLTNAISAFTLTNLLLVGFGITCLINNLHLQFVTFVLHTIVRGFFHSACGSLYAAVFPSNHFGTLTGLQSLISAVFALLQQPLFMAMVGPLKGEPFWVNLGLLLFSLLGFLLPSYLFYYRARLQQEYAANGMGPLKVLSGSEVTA
UniProt P43003, whole entry, looked up: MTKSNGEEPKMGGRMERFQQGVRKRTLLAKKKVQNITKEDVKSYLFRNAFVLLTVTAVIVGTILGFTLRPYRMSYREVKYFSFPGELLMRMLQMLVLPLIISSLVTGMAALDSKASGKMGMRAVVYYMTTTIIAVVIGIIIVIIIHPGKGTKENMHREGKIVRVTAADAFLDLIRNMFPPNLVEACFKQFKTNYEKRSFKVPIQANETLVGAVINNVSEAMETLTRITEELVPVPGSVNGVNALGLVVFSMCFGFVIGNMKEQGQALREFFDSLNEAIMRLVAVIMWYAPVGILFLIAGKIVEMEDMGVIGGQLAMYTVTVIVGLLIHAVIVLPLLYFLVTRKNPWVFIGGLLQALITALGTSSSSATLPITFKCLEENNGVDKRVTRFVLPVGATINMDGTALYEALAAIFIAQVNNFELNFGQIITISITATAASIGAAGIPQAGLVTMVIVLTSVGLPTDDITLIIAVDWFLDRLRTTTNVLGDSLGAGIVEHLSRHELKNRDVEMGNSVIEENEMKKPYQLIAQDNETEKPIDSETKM
UniProt Q6NXT4: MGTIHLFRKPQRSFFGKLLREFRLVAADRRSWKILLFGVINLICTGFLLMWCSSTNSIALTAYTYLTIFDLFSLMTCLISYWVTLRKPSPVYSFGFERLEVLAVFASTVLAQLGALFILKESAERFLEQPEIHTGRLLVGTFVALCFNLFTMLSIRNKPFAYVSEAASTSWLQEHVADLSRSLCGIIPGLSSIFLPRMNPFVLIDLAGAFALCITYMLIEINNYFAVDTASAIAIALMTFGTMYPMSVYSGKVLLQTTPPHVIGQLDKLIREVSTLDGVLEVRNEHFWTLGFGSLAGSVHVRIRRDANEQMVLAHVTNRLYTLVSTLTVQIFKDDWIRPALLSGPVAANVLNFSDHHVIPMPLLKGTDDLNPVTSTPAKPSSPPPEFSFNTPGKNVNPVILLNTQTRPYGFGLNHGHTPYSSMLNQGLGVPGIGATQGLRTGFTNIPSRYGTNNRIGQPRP
UniProt P08195: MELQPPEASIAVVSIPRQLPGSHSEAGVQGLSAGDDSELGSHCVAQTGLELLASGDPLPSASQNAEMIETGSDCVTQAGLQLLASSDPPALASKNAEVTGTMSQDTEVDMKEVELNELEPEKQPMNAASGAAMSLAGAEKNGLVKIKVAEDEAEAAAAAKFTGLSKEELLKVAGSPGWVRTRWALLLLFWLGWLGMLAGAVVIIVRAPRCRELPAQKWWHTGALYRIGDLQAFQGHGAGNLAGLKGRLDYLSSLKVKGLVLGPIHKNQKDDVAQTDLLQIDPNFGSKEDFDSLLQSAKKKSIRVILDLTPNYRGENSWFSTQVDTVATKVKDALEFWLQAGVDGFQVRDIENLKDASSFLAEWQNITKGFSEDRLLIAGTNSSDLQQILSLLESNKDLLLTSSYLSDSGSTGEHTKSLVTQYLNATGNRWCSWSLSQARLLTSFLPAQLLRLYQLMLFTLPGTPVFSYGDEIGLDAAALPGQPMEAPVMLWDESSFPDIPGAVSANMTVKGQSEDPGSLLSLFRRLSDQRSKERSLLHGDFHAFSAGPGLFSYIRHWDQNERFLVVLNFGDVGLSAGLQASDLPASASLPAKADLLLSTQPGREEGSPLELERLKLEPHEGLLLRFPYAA
UniProt O00400: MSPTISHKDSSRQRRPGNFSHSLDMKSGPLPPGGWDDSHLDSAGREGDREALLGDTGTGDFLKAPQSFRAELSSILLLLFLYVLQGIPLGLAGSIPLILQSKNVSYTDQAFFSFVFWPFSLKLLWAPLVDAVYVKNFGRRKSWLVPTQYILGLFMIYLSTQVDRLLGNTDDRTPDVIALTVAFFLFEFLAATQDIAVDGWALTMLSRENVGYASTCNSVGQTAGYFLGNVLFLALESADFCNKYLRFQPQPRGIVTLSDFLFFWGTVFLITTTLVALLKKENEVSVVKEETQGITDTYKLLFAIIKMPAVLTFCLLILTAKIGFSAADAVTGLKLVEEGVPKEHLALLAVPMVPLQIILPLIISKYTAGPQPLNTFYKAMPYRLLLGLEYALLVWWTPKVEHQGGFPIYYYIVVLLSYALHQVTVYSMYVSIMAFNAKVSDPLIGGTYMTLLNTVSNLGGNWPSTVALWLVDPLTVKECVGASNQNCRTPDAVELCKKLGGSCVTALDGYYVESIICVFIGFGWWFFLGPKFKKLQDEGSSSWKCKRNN
UniProt Q9Y2D2: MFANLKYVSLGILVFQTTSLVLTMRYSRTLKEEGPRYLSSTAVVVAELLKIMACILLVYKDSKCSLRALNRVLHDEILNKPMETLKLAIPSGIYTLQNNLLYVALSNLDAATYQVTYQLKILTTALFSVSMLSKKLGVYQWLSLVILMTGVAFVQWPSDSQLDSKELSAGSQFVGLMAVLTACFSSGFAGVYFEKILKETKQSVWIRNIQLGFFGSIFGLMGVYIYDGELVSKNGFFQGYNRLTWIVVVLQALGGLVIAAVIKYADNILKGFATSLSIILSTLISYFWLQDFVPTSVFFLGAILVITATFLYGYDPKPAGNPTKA

compound: C/C(=N\NC(=O)C1=CC(=CC=C1)S(=O)(=O)N2CCOCC2)/C3=C(C=CC(=C3)Cl)O; assay: log2 fold change, soluble protein after heating vs DMSO (PISA); higher = thermal stabilisation; K562 cells, 10 uM, 30 min; active = over 0.2 and 3.5 SD of the protein, either way, in both replicates (recomputed)
Summary of the method: (§1)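 K562 cells at 2×10^6 cells/mL were treated for 30 min with 10 μM compound, and aliquots were heated for 3 min over 48°C-58°C before pooling. Extraction used PBS with 0.5% NP-40 at 4°C, and soluble protein was the supernatant after 21,000xg for 90 min, measured by TMTpro 16plex LC-MS/MS with channel sums equalised. Thermal stability values, relative to control samples and from duplicates, are log2 fold changes.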

log2 fold change, inactive:
SLC12A4 (UniProt Q9UP95) -0.027
SLC35C2 isoform 3 (UniProt Q9NQQ7) 0.012
SLC25A20 (UniProt O43772) -0.05
SLC18B1 (UniProt Q6NT16) -0.09
SLC31A1 (UniProt O15431) -0.001
SLC2A3 (UniProt P11169) 0.071
SLC4A1AP (UniProt Q9BWU0) 0.044
SLC40A1 (UniProt Q9NP59) 0.072
SLC38A1 (UniProt Q9H2H9) -0.04
SLC30A5 (UniProt Q8TAD4) 0.009
SLC25A16 (UniProt P16260) 0.023
SLC35A4 (UniProt L0R6Q1) -0.02
SLC25A4 (UniProt P12235) -0.016
SLC39A6 (UniProt Q13433) -0.015
SLC25A51 (UniProt Q9H1U9) 0.024
SLC38A2 (UniProt Q96QD8) 0.075
SLC38A7 (UniProt Q9NVC3) -0.003
SLC25A46 (UniProt Q96AG3) 0.032
SLC5A6 (UniProt Q9Y289) 0.103
SLC20A1 (UniProt Q8WUM9) -0.061
SLC43A1 (UniProt O75387) 0.024
SLC1A3 (UniProt P43003) 0.017
SLC30A6 isoform 2 (UniProt Q6NXT4) 0.001
SLC25A37 (UniProt Q9NYZ2) 0.001
SLC7A1 (UniProt P30825) 0.021
SLC2A1 (UniProt P11166) 0.013
SLC3A2 isoform 3 (UniProt P08195) 0.046
SLC33A1 (UniProt O00400) -0.014
SLC35A3 isoform 2 (UniProt Q9Y2D2) -0.059
SLC3A2 (UniProt F5GZS6) -0.038
SLC44A2 isoform 2 (UniProt Q8IWA5) 0.028
SLC4A2 (UniProt P04920) 0.073
SLC35F6 (UniProt Q8N357) -0.078
SLC37A4 isoform 2 (UniProt O43826) -0.026
SLC10A4 (UniProt Q96EP9) -0.282
SLC25A1 (UniProt P53007) 0.032
SLBP (UniProt Q14493) 0.03
SLC38A9 (UniProt Q8NBW4) -0.023

compound: C1=CC(=C(C=C1Cl)C2=NC3=NC=CN=C3C(=N2)NC4=CC=NC=C4)F; assay: as above
Summary of the method: as §1

log2 fold change, inactive:
SLC12A4 (UniProt Q9UP95) 0.05
SLC35C2 isoform 3 (UniProt Q9NQQ7) -0.043
SLC25A20 (UniProt O43772) 0.016
SLC18B1 (UniProt Q6NT16) 0.067
SLC31A1 (UniProt O15431) -0.053
SLC2A3 (UniProt P11169) 0.062
SLC4A1AP (UniProt Q9BWU0) -0.025
SLC40A1 (UniProt Q9NP59) 0.093
SLC38A1 (UniProt Q9H2H9) 0.017
SLC30A5 (UniProt Q8TAD4) 0.033
SLC25A16 (UniProt P16260) 0.002
SLC35A4 (UniProt L0R6Q1) 0.075
SLC25A4 (UniProt P12235) 0.035
SLC39A6 (UniProt Q13433) 0.047
SLC25A51 (UniProt Q9H1U9) -0.01
SLC38A2 (UniProt Q96QD8) 0.01
SLC38A7 (UniProt Q9NVC3) 0.071
SLC25A46 (UniProt Q96AG3) 0.051
SLC5A6 (UniProt Q9Y289) -0.008
SLC20A1 (UniProt Q8WUM9) -0.036
SLC43A1 (UniProt O75387) -0.073
SLC1A3 (UniProt P43003) 0.194
SLC30A6 isoform 2 (UniProt Q6NXT4) -0.001
SLC25A37 (UniProt Q9NYZ2) -0.089
SLC7A1 (UniProt P30825) 0.054
SLC2A1 (UniProt P11166) 0
SLC3A2 isoform 3 (UniProt P08195) 0.032
SLC33A1 (UniProt O00400) 0.051
SLC35A3 isoform 2 (UniProt Q9Y2D2) 0.045
SLC3A2 (UniProt F5GZS6) -0.037
SLC44A2 isoform 2 (UniProt Q8IWA5) -0.059
SLC4A2 (UniProt P04920) -0.062
SLC35F6 (UniProt Q8N357) -0.008
SLC37A4 isoform 2 (UniProt O43826) 0.04
SLC10A4 (UniProt Q96EP9) -0.05
SLC25A1 (UniProt P53007) 0.043
SLBP (UniProt Q14493) -0.058
SLC38A9 (UniProt Q8NBW4) -0.018
